PubChem BioAssay AID1259254, NCATS, 2017

Assay: 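Genome-wide screen for genes that prevent DNA re-replication in cancer cells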 (primary screen)
Cell system: human HCT116 colorectal cancer cells
Knock-down reagent: single siRNA against human genes
Timing: 3 days
Detection: 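Imaged Hoechst DNA stain sorts each cell into a cycle phase by DNA amount; per plate, G2 fraction set to 0% for non-targeting and 100% for GMNN siRNA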
Direction: G2 robust z-score and G2 cells, % of GMNN control: higher = more G2 cells, more excess DNA replication; raw share of cells in G2: higher = larger share of cells with G2 DNA content
Rule for the call: 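An siRNA counts as active if its G2 robust z-score lies at least 5 MADs above the screen median; here such calls match roughly 38% of GMNN control or more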
Here is one part, drawn at random, of about 59,000 reagents tested. Of all reagents, about 1,550 (2.6%) are marked active. 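G2 share is only a proxy for re-replication; each gene was hit by three separate siRNAs, and active genes were retested.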 Raw values vary from plate to plate and are shown uncorrected. A number with no mark means an inactive call. The numbers tell different reagents against one gene apart. Reagent sequences are not shown. The record does not give: the amount of reagent.

| Gene | siRNA no. | G2 robust z-score | G2 cells, % of GMNN control | raw share of cells in G2 (%) |
| --- | --- | --- | --- | --- |
| ALG1L3P | 1 | 1.2 | 11.4 | 6.16 |
| ALG1L3P | 2 | -0.264 | 1.11 | 3.81 |
| ALG1L3P | 3 | 0.501 | 6.5 | 5.57 |
| TMCC3 | 1 | -0.808 | -2.71 | 3.28 |
| TMCC3 | 2 | 2.41 | 19.9 | 14 |
| TMCC3 | 3 | 0.257 | 4.78 | 4.54 |
| TRPC4 | 1 | 0.324 | 5.25 | 7.2 |
| TRPC4 | 2 | -1.25 | -5.84 | 2.81 |
| TRPC4 | 3 | -0.889 | -3.29 | 3.09 |
| CTTN | 1 | -0.572 | -1.06 | 4.85 |
| CTTN | 2 | -0.866 | -3.13 | 4.07 |
| CTTN | 3 | -0.662 | -1.69 | 3.05 |
| ATG5 | 1 | 0.0125 | 3.06 | 4.54 |
| ATG5 | 2 | -0.964 | -3.81 | 4.29 |
| ATG5 | 3 | -0.312 | 0.769 | 3.66 |
| RHOBTB3 | 1 | -0.0286 | 2.77 | 4.81 |
| RHOBTB3 | 2 | 0.0458 | 3.29 | 7.69 |
| RHOBTB3 | 3 | 0.0156 | 3.08 | 5.18 |
| GTF3C1 | 1 | -1.18 | -5.35 | 2.79 |
| GTF3C1 | 2 | -0.236 | 1.31 | 4.57 |
| GTF3C1 | 3 | 0.299 | 5.07 | 5.51 |
| PTTG1IP | 1 | 0.0664 | 3.43 | 6.91 |
| PTTG1IP | 2 | 1.51 | 13.6 | 9.06 |
| PTTG1IP | 3 | 1.48 | 13.4 | 8.76 |
| TBC1D22B | 1 | -1.31 | -6.26 | 2.12 |
| TBC1D22B | 2 | 1.03 | 10.2 | 8.38 |
| TBC1D22B | 3 | -1.03 | -4.26 | 1.78 |
| DTX3L | 1 | -0.343 | 0.553 | 3.28 |
| DTX3L | 2 | -0.367 | 0.388 | 3.3 |
| DTX3L | 3 | 1.17 | 11.2 | 7.44 |
| MAGEB6 | 1 | 0.0657 | 3.43 | 4.83 |
| MAGEB6 | 2 | -0.286 | 0.956 | 3.28 |
| MAGEB6 | 3 | 0.789 | 8.52 | 5.46 |
| FRZB | 1 | 0.561 | 6.91 | 8.54 |
| FRZB | 2 | 1.61 | 14.3 | 9.33 |
| FRZB | 3 | -0.742 | -2.25 | 2.64 |
| ZBTB8OSP1 | 1 | 0.905 | 9.34 | 7.76 |
| ZBTB8OSP1 | 2 | 0.588 | 7.11 | 5.62 |
| ZBTB8OSP1 | 3 | -0.656 | -1.65 | 2.57 |

Next part, starting with the last 9 of the part before.
| Gene | siRNA no. | G2 robust z-score | G2 cells, % of GMNN control | raw share of cells in G2 (%) |
| --- | --- | --- | --- | --- |
| MAGEB6 | 1 | 0.0657 | 3.43 | 4.83 |
| MAGEB6 | 2 | -0.286 | 0.956 | 3.28 |
| MAGEB6 | 3 | 0.789 | 8.52 | 5.46 |
| FRZB | 1 | 0.561 | 6.91 | 8.54 |
| FRZB | 2 | 1.61 | 14.3 | 9.33 |
| FRZB | 3 | -0.742 | -2.25 | 2.64 |
| ZBTB8OSP1 | 1 | 0.905 | 9.34 | 7.76 |
| ZBTB8OSP1 | 2 | 0.588 | 7.11 | 5.62 |
| ZBTB8OSP1 | 3 | -0.656 | -1.65 | 2.57 |
| RAB7A | 1 | 2.46 | 20.2 | 14.1 |
| RAB7A | 2 | 0.739 | 8.17 | 7.17 |
| RAB7A | 3 | -0.85 | -3.02 | 3.14 |
| PRICKLE3 | 1 | 0.0209 | 3.11 | 6.71 |
| PRICKLE3 | 2 | -0.834 | -2.9 | 2.24 |
| PRICKLE3 | 3 | -0.369 | 0.374 | 5.5 |
| HPS4 | 1 | -0.281 | 0.992 | 4.5 |
| HPS4 | 2 | -0.565 | -1.01 | 2.68 |
| HPS4 | 3 | 0.204 | 4.41 | 4.32 |
| ESR2 | 1 | -0.574 | -1.07 | 5.32 |
| ESR2 | 2 | -0.314 | 0.757 | 4.81 |
| ESR2 | 3 | 2.17 | 18.2 | 9.98 |
| SLC34A1 | 1 | -0.497 | -0.528 | 5.5 |
| SLC34A1 | 2 | 1.08 | 10.6 | 8.17 |
| SLC34A1 | 3 | -0.234 | 1.32 | 4.4 |
| ASH1L | 1 | 0.425 | 5.96 | 9.04 |
| ASH1L | 2 | -0.444 | -0.157 | 4.38 |
| ASH1L | 3 | 0.771 | 8.39 | 7.83 |
| TOR2A | 1 | 3.3 | 26.2 | 11.5 |
| TOR2A | 2 | -0.162 | 1.83 | 4.55 |
| TOR2A | 3 | -0.674 | -1.77 | 3.88 |
| NFKBIA | 1 | 2.72 | 22.1 | 14.4 |
| NFKBIA | 2 | 0.987 | 9.91 | 8.14 |
| NFKBIA | 3 | -0.943 | -3.66 | 2.03 |
| ALG1L1P | 1 | 3.57 | 28.1 | 13.7 |
| ALG1L1P | 2 | 1.78 | 15.5 | 8.15 |
| ALG1L1P | 3 | -0.515 | -0.657 | 2.55 |
| ULK1 | 1 | -0.664 | -1.7 | 5.05 |
| ULK1 | 2 | 1.35 | 12.5 | 9.61 |
| ULK1 | 3 | -1.1 | -4.76 | 2.35 |
